# Source: PubChem BioAssay (NCATS)
# The chains behind the UniProt entries cited, without tags or fusion partners. Where a name states a change or a piece, a line headed by the entry shows the natural chain unless it says otherwise.
# UniProt P10275: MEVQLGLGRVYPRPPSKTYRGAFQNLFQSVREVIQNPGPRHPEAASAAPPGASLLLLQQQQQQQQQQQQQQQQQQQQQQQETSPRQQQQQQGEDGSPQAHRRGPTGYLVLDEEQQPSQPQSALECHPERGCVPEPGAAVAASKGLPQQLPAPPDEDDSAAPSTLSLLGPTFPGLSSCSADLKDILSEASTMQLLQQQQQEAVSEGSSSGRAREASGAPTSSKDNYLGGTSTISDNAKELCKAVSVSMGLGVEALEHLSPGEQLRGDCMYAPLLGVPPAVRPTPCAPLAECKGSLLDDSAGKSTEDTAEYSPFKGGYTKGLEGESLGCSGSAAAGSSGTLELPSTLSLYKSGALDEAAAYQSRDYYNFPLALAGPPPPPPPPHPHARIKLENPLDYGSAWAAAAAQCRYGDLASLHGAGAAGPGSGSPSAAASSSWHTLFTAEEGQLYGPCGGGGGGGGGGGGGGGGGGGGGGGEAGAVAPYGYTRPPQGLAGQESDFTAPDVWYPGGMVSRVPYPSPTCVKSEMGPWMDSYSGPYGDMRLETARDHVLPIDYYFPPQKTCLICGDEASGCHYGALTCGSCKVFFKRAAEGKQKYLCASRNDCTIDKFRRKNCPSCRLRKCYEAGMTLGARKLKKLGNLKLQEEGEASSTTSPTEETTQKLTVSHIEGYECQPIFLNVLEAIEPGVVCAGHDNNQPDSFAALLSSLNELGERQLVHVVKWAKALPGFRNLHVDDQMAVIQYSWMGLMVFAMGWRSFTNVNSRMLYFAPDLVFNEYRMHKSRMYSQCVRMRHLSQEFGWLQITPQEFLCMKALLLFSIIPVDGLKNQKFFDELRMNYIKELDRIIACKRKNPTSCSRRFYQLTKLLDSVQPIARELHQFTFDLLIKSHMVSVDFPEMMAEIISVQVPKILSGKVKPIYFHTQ
# UniProt P51449: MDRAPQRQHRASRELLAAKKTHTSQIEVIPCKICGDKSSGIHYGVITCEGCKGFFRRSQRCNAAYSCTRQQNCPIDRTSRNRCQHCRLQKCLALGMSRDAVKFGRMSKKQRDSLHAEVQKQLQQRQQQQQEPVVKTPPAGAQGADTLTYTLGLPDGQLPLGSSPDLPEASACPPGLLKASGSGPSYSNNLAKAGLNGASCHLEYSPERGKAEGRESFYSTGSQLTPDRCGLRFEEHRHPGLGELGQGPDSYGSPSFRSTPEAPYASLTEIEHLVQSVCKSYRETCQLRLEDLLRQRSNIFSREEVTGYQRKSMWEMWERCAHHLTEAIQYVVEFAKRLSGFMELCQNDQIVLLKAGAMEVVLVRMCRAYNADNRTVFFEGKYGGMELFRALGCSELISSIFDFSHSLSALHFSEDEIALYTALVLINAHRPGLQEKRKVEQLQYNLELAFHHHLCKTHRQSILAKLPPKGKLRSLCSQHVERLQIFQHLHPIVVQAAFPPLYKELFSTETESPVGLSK
# UniProt P03372, whole entry, looked up: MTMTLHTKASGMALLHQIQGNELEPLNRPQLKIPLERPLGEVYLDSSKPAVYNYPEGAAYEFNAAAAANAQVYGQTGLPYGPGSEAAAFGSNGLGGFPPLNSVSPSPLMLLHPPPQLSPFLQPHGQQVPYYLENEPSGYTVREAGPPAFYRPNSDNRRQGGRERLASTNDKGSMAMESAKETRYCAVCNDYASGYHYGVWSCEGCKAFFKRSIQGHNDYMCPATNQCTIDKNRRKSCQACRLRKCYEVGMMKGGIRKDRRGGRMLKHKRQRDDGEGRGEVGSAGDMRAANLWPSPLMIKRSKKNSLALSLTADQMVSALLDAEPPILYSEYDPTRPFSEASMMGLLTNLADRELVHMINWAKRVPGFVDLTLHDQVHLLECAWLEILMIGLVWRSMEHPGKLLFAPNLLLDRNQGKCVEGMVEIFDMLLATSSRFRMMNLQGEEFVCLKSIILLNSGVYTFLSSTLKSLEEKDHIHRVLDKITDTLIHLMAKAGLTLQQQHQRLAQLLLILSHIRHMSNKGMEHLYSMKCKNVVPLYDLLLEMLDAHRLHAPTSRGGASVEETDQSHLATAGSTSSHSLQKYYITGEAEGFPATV
# UniProt P10828: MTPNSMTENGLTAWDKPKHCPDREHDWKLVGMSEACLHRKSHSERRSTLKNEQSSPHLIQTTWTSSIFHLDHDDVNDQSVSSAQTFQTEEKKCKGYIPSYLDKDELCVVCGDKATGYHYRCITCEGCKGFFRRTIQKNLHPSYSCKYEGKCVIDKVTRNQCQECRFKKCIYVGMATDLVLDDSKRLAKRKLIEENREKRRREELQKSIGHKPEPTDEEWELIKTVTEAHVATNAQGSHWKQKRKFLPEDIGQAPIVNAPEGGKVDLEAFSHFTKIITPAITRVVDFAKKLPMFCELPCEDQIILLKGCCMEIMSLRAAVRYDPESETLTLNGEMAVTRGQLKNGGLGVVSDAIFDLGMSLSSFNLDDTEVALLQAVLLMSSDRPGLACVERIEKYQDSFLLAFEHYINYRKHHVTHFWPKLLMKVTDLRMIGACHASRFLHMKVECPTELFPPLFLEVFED
# UniProt Q03181: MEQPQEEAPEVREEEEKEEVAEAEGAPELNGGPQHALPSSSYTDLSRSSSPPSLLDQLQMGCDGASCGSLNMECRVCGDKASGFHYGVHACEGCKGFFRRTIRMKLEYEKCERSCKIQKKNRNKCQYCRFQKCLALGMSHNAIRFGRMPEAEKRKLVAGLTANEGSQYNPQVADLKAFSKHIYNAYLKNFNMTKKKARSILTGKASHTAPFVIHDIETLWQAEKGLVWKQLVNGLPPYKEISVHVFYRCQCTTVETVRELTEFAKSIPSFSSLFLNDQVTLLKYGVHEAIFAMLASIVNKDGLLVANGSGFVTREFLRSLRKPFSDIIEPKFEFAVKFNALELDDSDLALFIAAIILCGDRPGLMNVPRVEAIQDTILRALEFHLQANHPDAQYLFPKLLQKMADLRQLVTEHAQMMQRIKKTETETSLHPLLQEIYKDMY
# This list was built around the results that the source calls inconclusive (neither active nor inactive); the mix of calls is not that of the screen. For some of these results: Where the call is inconclusive, the potency comes from a doubtful curve fit. For some of these results: A note “side channel” means that the fit belongs to a control or component signal, not to the main read-out. Activity calls are given as the source filed them. Unless noted, calls come from the whole dose curve; as a rule, active = well fitted curve in the direction sought with a large enough effect; inconclusive = small, poorly fitted or top-dose-only effect, or another doubt; inactive = no such curve, though single readings can be large; an effect the other way counts as inactive or inconclusive.
# Experiments:
# [1] = Cellular Toxicity (caspase-3) Renal Proximal Tubule (AID 667); details: renal proximal tubule cells, primary cells freshly taken from rat; Potency: caspase-3 activation; caspase-3 activation: at 91.7 µM (top of the series), solvent-only wells 0%, staurosporine 100%;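 note: cells exposed to compound for 16 hours at 37 °C before detection; 0% = DMSO basal and 100% = 10 µM staurosporine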
# In short: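 Caspase-Glo 3/7 read-out, rat primary kidney proximal tubule cells. Compound exposure 16 h, 37 °C; detection after 1 h at RT. Activity scaled to DMSO and 10 uM staurosporine.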
# [2] = MultiTox-Fluor Cytotoxicity Assay - LYMP1-001 - Dead Cells (AID 946)
# In short: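 Cytotoxicity as increased dead-cell protease fluorescence (bis-AAF-R110, 485/520 nm), read 60 min after MultiTox-Fluor reagent. Human lymphoblastoid line exposed 16 h; Hill-fitted AC50, with DMSO as 0% and 15 uM tetraoctylammonium bromide as 100%.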
# [3] = MultiTox-Fluor Cytotoxicity Assay - LYMP1-002 - Dead Cells (AID 960); details: LYMP1-002 lymphoblastoid cells, dead-cell protease fluorescence; cytotoxicity (dead cells): at 46.1 µM (top of the series); note: nearly all actives have a fitted effect of over 60% in size
# In short: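 Cells were plated, rested 5 hr, then treated with compound dilution series for 16 hr at 37 C. After adding substrate reagent and 60 min at room temperature, dead-cell protease fluorescence gave concentration-response curves fitted by the Hill equation.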
# [4] = Cell Viability - LYMP2-025 (AID 976); details: LYMP2-025 lymphoblastoid cell viability; activity change, negative = cytotoxicity: at 92.2 µM (top of the series);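 note: plate controls were DMSO only for no effect and tetraoctylammonium bromide control for full effect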
# In short: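 Acute cytotoxicity is scored as a concentration-dependent fall in intracellular ATP, measured by luciferase luminescence, in human lymphoblastoid LYMP2-025 cells exposed to compound for 24 hours at 37 C. AC50 values come from standard Hill fits.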
# [5] = Cell Viability - LYMP2-010 (AID 981); note: % is set by controls: 0 for no effect and ±100 for the full control effect; nearly all actives have a fitted effect of over 55% in size
# In short: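 Steps: seed 2500 LYMP2-010 cells per well; incubate 5 hr at 37 C; add compound; incubate 24 hr at 37 C; add CellTiter-Glo, wait 30 min at room temperature; read luminescence. Concentration-response fitted to Hill equation for AC50.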
# [6] = target: Androgen receptor (Homo sapiens) (UniProt P10275); test: qHTS assay for small molecule agonists of androgen receptor signaling (AID 588515; active = well fitted curve in the direction sought with a large enough effect in the signal ratio, with a control signal flat; inconclusive = small, poorly fitted or top-dose-only effect, or effect the other way, or a change in a side signal; inactive = no such curve, though single readings can be large or run the other way; the % refers to the signal ratio; note: % is set by controls: 0 for no effect and ±100 for the full control effect); details: AR-UAS-bla HEK293, beta-lactamase ratio, agonist 16 h; activation: hits give high values
# In short: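 Stimulation of an AR-responsive β-lactamase reporter in GripTite HEK293 cells was measured after 16 h compound exposure at 37 °C, via CCF4 fluorescence after 2 h RT. EC50 from Hill fits, normalized to R1881 at 30 nM.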
# [7] = target: Androgen receptor (Homo sapiens) (UniProt P10275); test: qHTS assay for small molecule antagonists of androgen receptor signaling (AID 588516; active = well fitted curve in the direction sought with a large enough effect in the signal ratio, with a control signal flat, not every such curve was filed as active; inconclusive = small, poorly fitted or top-dose-only effect, or effect the other way, or a change in a side signal; inactive = no such curve, though single readings can be large or run the other way; the % refers to the signal ratio; note: % is set by controls: 0 for no effect and ±100 for the full control effect); details: AR-UAS-bla HEK293, beta-lactamase ratio, antagonist mode, 16 h; activity change, negative = inhibition: at 76.8 µM (top of the series)
# In short: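 Cells were plated and incubated 5 h, compounds added in titration, then R1881 (10 nM final) as agonist. After 16 h at 37 C, CCF4 substrate was loaded for 2 h at room temperature and fluorescence measured.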
# [8] = target: Peroxisome proliferator-activated receptor gamma (Homo sapiens) (UniProt P37231); test: qHTS assay for small molecule antagonists of peroxisome proliferator-activated receptor gamma signaling (AID 588537; active = well fitted inhibition curve with a large enough effect in the signal ratio, with a control signal flat, not every such curve was filed as active; inconclusive = small, poorly fitted or top-dose-only effect, or effect the other way, or a change in a side signal; the % refers to the signal ratio;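 note: reporter cells co-stimulated with 50 nM rosiglitazone agonist during compound treatment; % of control where 0% means no effect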); details: HEK293 PPARg-UAS-bla, beta-lactamase ratio, antagonist mode; activity, negative = inhibition: at 76.8 µM (top of the series) unless noted
# In short: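 Antagonist-mode β-lactamase reporter screen run as a titration series. HEK293 PPARγ-UAS-bla cells are stimulated with rosiglitazone (50 nM final) for 16 h, then CCF4 is read at 460/530 nm. Data are scaled between DMSO and rosiglitazone and fitted to the Hill equation.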
# [9] = qHTS assay for small molecule agonists of the antioxidant response element (ARE) signaling pathway (AID 651741; active = well fitted activation curve with a large enough effect in the signal ratio; inconclusive = small, poorly fitted or top-dose-only effect, or effect the other way, or a change in a side signal; the % refers to the signal ratio; note: potency is the fitted concentration of half-maximal effect; for activation: % of control where 0% means no effect); details: HepG2 ARE-bla reporter, beta-lactamase FRET ratio, 16 h; activation: at 96 µM (top of the series) unless noted
# In short: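 Beta-lactamase reporter under ARE control in HepG2 cells, 2,000 per well, was induced by 16 h compound treatment at 37 C. Read-out was fluorescence from LiveBLAzer B/G FRET substrate after 2 h at room temperature.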
# [10] = qHTS assay to identify small molecules that stimulate interleukin-8 (IL-8) secretion (AID 651758; active = well fitted activation curve with a large enough effect in the signal ratio; inconclusive = small, poorly fitted or top-dose-only effect, or effect the other way, or a change in a side signal; the % refers to the signal ratio; note: potency is the fitted concentration of half-maximal effect; for activation: 0% is about no effect); details: HTRF ratio (665/615); activation: at 92.2 µM (top of the series)
# In short: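 Secreted IL-8 measured homogeneously by TR-FRET (two labelled anti-IL-8 antibodies, 1-3 h at room temperature) after a 16 h, 37 C compound treatment of THP-1 cells at 2000 cells/well.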
# [11] = target: Nuclear receptor ROR-gamma (Homo sapiens) (UniProt P51449); test: qHTS assay for small molecule antagonists of the retinoid-related orphan receptor gamma (ROR-gamma) signaling pathway (AID 651802); note: nearly all actives have a fitted effect of over 60% in size; note: potency is the fitted concentration of half-maximal effect
# In short: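 Steps: cells dispensed; compound or DMSO transferred by pin tool; doxycycline added to induce the ROR response element-driven luciferase; plates held 16hr at 37C; ONE-Glo added and luminescence measured.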
# [12] = Cell Viability - LYMP2-017 (AID 972); details: LYMP2-017 lymphoblastoid cell viability; activity change, negative = cytotoxicity: at 92.2 µM (top of the series); note: % is set by controls: 0 for no effect and ±100 for the full control effect; nearly all actives have a fitted effect of over 55% in size
# In short: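 Cytotoxicity is scored as a concentration-dependent drop in cellular ATP in a human lymphoblastoid line after 24 hr treatment at 37 C. Values are AC50s from Hill-equation modelling.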
# [13] = target: Estrogen receptor (Homo sapiens) (UniProt P03372); test: qHTS assay for small molecule agonists of estrogen receptor alpha signaling (AID 588514; calls by dose curve;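 note: 0% = vehicle only and 100% = reference agonist; nearly all actives have a fitted effect of over 70% in size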); details: ER-alpha-UAS-bla HEK293, beta-lactamase ratio, 18 h; activation: at 76.8 µM (top of the series), percent of full estradiol response, vehicle zero unless noted
# In short: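 Efficacy is expressed against 20 nM 17-beta-estradiol (100%) and DMSO basal (0%); EC50 from Hill equation. Assay: beta-lactamase reporter in ER-alpha-UAS-bla HEK 293 cells, 18 h compound incubation, CCF4 detection.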
# [14] = qHTS assay for cell viability of HEK293 cells (AID 743288); details: ATP luminescence (CellTiter-Glo), 18 h; max response: hits give low values; note: % is set by controls: 0 for no effect and ±100 for the full control effect; nearly all actives have a fitted effect of over 50% in size
# In short: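 HEK293, 18 h, 37 C, ATP luminescence. Cells at 2,000/well were allowed at least 5 h to settle before dosing; CellTiter-Glo developed 30 min at RT.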
# [15] = Cell Viability - LYMP1-003 - Assay at 40 hr (AID 964); details: LYMP1-003 lymphoblastoid viability; at 92.2 µM (top of the series); note: % is set by controls: 0 for no effect and ±100 for the full control effect; nearly all actives have a fitted effect of over 60% in size
# In short: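 Luminescent ATP signal (CellTiter-Glo) served as the viability read-out after 40 hr compound treatment of human lymphoblastoid LYMP1-003 cells at 37 C. Decreases in ATP were fitted with the Hill equation to give AC50.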
# [16] = Cellular Toxicity (caspase-3) SK-N-SH (AID 661); details: SK-N-SH caspase-3 activation, qHTS, DMSO as zero, staurosporine as full; at 91.7 µM (top of the series);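 note: cells exposed to compound for 16 hours; 0% = DMSO basal and 100% = 10 µM staurosporine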
# In short: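 Cells were seeded and incubated 5 hr at 37 °C, dosed with compound over a concentration range for 16 hr, then given Caspase-Glo 3/7 reagent for 1 hr at room temperature before luminescence reading.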
# [17] = MultiTox-Fluor Cytotoxicity Assay - LYMP1-002 - Live Cells (AID 955); details: LYMP1-002 lymphoblastoid live-cell protease fluorescence viability; at 46.1 µM (top of the series);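 note: cells exposed to compound for 16 hours; % is set by controls: 0 for no effect and ±100 for the full control effect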
# In short: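 Cells were seeded at 2500 per well and incubated 5 hr. Compounds were then added for 16 hr at 37 C, followed by MultiTox-Fluor reagent for 60 min at room temperature and fluorescence reading of viable-cell protease signal.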
# [18] = target: Thyroid hormone receptor beta (Homo sapiens) (UniProt P10828); test: qHTS assay for small molecule agonists of thyroid hormone receptor beta signaling (AID 588545; calls by dose curve); details: TR-UAS-bla GripTite HEK 293, beta-lactamase ratio, agonist mode, 18 h; activation: at 76.7 µM, percent of T3 response, DMSO as zero
# In short: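 In this cell-based screen, titrated compounds act on HEK 293 cells held in medium with 2% charcoal/dextran FBS, NEAA and pyruvate for 18 hrs at 37 C. Responses are expressed relative to T3 (10 nM) as 100% and basal DMSO as 0%.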
# [19] = qHTS assay for small molecule activators of the nuclear factor-kappa B (NF-kB) signaling pathway (AID 651749; active = well fitted activation curve with a large enough effect in the signal ratio; inconclusive = small, poorly fitted or top-dose-only effect, or a change in a side signal; the % refers to the signal ratio; note: % of control where 0% means no effect); details: NF-kB-bla ME-180 cells, beta-lactamase FRET ratio, 16 h; activation: hits give high values
# In short: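 Activation measured after 16 hr compound treatment at 37C, 5% CO2, of 2,000 ME-180 cells/well stably expressing an NF-kB response element–driven beta-lactamase reporter, via FRET-disruption fluorescence.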
# [20] = Cell Viability - LYMP1-002 - Assay at 24 hr (AID 993); details: LYMP1-002 lymphoblastoid cells viability; at 92.2 µM (top of the series); note: % is set by controls: 0 for no effect and ±100 for the full control effect
# In short: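 Acute toxicity is measured as concentration-dependent loss of cellular ATP in a human lymphoblastoid line (Coriell LYMP1-002) after 24 h treatment in complete medium. ATP is quantified by luciferase luminescence and AC50 derived by Hill modelling.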
# [21] = qHTS assay for small molecule agonists of the antioxidant response element (ARE) signaling pathway measured by Nrf2-dependant transcriptional activity (AID 720636; active = well fitted curve in the direction sought with a large enough effect in the repeat runs; inconclusive = weak or mixed curves; inactive = no such curve, though single readings can be large; an effect the other way counts as inactive or inconclusive; note: % of control where 0% means no effect)
# In short: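 Nrf2-dependent transcription read as ONE-Glo luciferase signal from ARE-luc HepG2 reporter cells after 16 hr compound treatment at 37 C, 5% CO2, in assay medium with 1% dialyzed FBS.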
# [22] = target: Peroxisome proliferator-activated receptor delta (Homo sapiens) (UniProt Q03181); test: qHTS assay for small molecule agonists of peroxisome proliferator-activated receptor delta signaling (AID 588534; calls by dose curve; note: potency is the fitted concentration of half-maximal effect); details: HEK293T PPARdelta-UAS-bla, beta-lactamase ratio, 18 h; activation: at 76.7 µM (top of the series) unless noted
# In short: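 Agonist-mode qHTS; reporter cells, 5 hrs 37 C pre-incubation; compound titration, 18 hrs 37 C; CCF4 dye, 2 hrs RT; fluorescence read. EC50/efficacy via Hill fit.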
# [23] = target: Peroxisome proliferator-activated receptor delta (Homo sapiens) (UniProt Q03181); test: qHTS assay for small molecule antagonists of peroxisome proliferator-activated receptor delta signaling (AID 588535; active = well fitted inhibition curve with a large enough effect in the signal ratio, with a control signal flat, not every such curve was filed as active; inconclusive = small, poorly fitted or top-dose-only effect, or effect the other way, or a change in a side signal; inactive = no such curve, though single readings can be large or run the other way; the % refers to the signal ratio); details: HEK293T PPARd-UAS-bla, beta-lactamase FRET ratio, 18 h; activity change, negative = inhibition: at 76.7 µM (top of the series) unless noted
# In short: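 Titrations were run on PPAR-delta-UAS-bla HEK293T cells in charcoal/dextran-stripped serum, incubated 18 h at 37 C. CCF4 fluorescence (460/530 nm) after 2 h RT; Hill equation yields IC50 and maximal response.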
smiles,measurement,setting,value
CNC(=O)N(c1ccccc1)c1ccccc1,Potency,[1],inactive
same,Potency,[2],inactive
same,Potency,[3],inactive
same,"activity change, negative = cytotoxicity",[4],inconclusive: -33.4% [cytotoxic]
same,Potency,[5],inactive
same,activation,[6],inactive: -11.4%
same,Potency,[7],inactive
same,"activity, negative = inhibition",[8],inconclusive: -2.73%
same,Potency,[9],"inconclusive: 33.5 µM [fluorescent, side channel]"
same,activation,[10],inconclusive: -29.6%
same,Potency,[11],"inconclusive: 2.66 µM [inhibitor, full curve, poor fit]"
C=C(C)C(N)=O,Potency,[12],inactive
same,activation,[13],inconclusive: 59.8%
same,"activity, negative = inhibition",[8],inconclusive: 10.8%
same,Potency,[9],inactive
same,activation,[10],inconclusive: 13.3%
same,max response,[14],inactive: -1.33%
FB(F)F,Potency,[1],inactive
same,Potency,[3],inactive
same,"activity change, negative = cytotoxic",[15],inactive: -3.88%
same,Potency,[12],inactive
same,Potency,[13],inactive
NC(=O)c1ccccc1[N+](=O)[O-],caspase-3 activation,[16],inactive: 1.04%
same,"viability change, negative = cytotoxic",[17],inactive: 4.89%
same,Potency,[13],inactive
same,Potency,[8],inactive
same,activation,[18],inactive: -8.44%
same,activation,[19],inactive: -0.661%
same,activation,[10],inconclusive: 0.107%
same,Potency,[11],inactive
NC(=O)NC(N)=O,Potency,[5],inactive
same,"activity change, negative = cytotoxicity",[20],inactive: 6.73%
same,Potency,[13],inactive
same,"activity, negative = inhibition",[8],inconclusive: 8.7%
same,Potency,[9],inactive
same,Potency,[10],"inconclusive: 75 µM [activator, single point]"
same,Potency,[21],inactive
Cn1c(=O)[nH]c(=O)n(C2CCCCC2)c1=O,activation,[6],inconclusive: -22.3%
same,Potency,[7],inactive
same,Potency,[22],"inconclusive: 44.7 µM [side channel, rising, single point]"
same,"activity change, negative = inhibition",[23],inconclusive: 11.3%
same,"activity, negative = inhibition",[8],inconclusive: -14.1%
same,Potency,[9],"inconclusive: 68.6 µM [activator, partial curve]"

# In another format: entries from further up.
smiles	measurement	setting	value
FB(F)F	Potency	[1]	inactive
same	Potency	[3]	inactive
same	activity change, negative = cytotoxic	[15]	inactive: -3.88%
same	Potency	[12]	inactive
same	Potency	[13]	inactive
